PMC11236980
Construct, isoform or probe ends are uncertain for at least one entry. For some of these results: A negative result means that nothing was seen under these conditions. For some of these results: At least one verdict rests on a figure or table, not on a statement of the authors. For some of these results: Tags and fusion partners may be left off the protein sequences shown.

The chains behind the UniProt entries cited, without tags or fusion partners. Where a name states a change or a piece, a line headed by the entry shows the natural chain unless it says otherwise. Residues count along the entry.
UniProt O75417, 1-894: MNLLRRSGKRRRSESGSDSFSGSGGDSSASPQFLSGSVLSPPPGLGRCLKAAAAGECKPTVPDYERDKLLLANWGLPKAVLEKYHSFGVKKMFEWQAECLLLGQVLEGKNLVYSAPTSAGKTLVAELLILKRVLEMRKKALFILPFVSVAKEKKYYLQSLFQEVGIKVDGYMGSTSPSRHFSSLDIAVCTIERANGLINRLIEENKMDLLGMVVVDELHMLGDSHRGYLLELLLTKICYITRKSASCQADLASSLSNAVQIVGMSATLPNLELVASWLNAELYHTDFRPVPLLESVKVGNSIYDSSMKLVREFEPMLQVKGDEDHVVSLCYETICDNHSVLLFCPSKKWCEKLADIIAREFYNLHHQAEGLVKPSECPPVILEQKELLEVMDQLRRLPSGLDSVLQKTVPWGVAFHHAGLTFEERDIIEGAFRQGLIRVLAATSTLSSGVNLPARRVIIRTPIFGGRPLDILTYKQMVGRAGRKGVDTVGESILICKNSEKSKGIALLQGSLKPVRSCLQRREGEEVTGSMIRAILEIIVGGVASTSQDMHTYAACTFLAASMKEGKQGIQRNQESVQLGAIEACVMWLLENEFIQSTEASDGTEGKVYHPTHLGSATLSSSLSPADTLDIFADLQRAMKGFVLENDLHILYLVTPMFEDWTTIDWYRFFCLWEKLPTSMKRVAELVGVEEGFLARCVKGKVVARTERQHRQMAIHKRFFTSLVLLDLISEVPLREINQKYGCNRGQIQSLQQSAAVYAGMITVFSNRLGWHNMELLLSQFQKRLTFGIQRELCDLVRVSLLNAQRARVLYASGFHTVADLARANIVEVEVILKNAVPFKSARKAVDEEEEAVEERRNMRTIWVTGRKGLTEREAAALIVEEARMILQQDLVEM

Columns and labels:
Experiment in all cases: EMSA
Polθ-pol (human) = biological target: T1, Polθ-pol (human) (UniProt O75417); conditions: ADP-ribose (ADR) competitor, not inhibited; 25 mM Tris-HCl pH 7.5, 5 mM MgCl2, 30 mM NaCl, 5% glycerol, 0.1 mg/mL BSA, 1 mM DTT; PARylation 20 min 37 °C, binding at room temperature; 8% native PAGE 0.5x TBE; recombinant protein; label: 5'-Cy3 on strand 1
T1 sequence (looked up, limits assumed): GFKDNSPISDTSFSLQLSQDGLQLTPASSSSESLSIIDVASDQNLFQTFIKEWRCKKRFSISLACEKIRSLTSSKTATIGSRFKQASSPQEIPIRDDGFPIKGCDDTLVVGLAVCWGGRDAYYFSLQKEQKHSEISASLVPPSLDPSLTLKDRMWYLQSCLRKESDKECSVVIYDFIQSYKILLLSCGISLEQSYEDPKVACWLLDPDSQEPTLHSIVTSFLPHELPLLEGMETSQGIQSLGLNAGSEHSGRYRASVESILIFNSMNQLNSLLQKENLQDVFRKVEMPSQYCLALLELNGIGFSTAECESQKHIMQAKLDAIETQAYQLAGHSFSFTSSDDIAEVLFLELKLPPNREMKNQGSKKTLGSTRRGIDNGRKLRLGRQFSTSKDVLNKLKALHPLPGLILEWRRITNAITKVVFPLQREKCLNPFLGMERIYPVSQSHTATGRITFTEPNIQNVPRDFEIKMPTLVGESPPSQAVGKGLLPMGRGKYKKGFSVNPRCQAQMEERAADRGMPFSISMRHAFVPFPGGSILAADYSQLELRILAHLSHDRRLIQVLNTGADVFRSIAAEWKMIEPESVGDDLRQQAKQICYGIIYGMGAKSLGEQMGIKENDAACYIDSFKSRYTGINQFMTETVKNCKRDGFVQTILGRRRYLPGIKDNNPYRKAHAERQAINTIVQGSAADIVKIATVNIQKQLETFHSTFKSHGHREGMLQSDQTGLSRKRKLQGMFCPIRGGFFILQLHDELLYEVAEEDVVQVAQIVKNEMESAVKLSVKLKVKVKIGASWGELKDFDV

Polθ-hel (human) = Polθ-hel (human) (UniProt O75417); conditions: ADP-ribose (ADR) competitor, not significantly inhibited; 25 mM Tris-HCl pH 7.5, 5 mM MgCl2, 30 mM NaCl, 5% glycerol, 0.1 mg/mL BSA, 1 mM DTT; PARylation 20 min 37 °C, binding at room temperature; 8% native PAGE 0.5x TBE; recombinant protein; label: 5'-Cy3 on strand 1
[1] = biological target: PolθΔcen, PARylated by PARP1 (human) (UniProt O75417); conditions: with PARP1 25 nM, 100 uM NAD+ and PAS; 25 mM Tris-HCl pH 7.5, 5 mM MgCl2, 30 mM NaCl, 5% glycerol, 0.1 mg/mL BSA, 1 mM DTT; PARylation 20 min 37 °C, binding at room temperature; 8% native PAGE 0.5x TBE; recombinant protein; protein details: 3xFLAG; label: 5'-Cy3; single-stranded DNA
[2] = biological target: Polθ-hel, PARylated by PARP1 (human) (UniProt O75417); conditions: with PARP1 25 nM, 100 uM NAD+ and PAS; 25 mM Tris-HCl pH 7.5, 5 mM MgCl2, 30 mM NaCl, 5% glycerol, 0.1 mg/mL BSA, 1 mM DTT; PARylation 20 min 37 °C, binding at room temperature; 8% native PAGE 0.5x TBE; recombinant protein; label: 5'-Cy3; single-stranded DNA

Sequence	binding result (Polθ-pol (human))	binding result (Polθ-hel (human))	binding result [1]	binding result [2]
CACTGTGAGCTTAGGGTTAGAGCCGG (double strand) [dsDNA (RP348/RP348c)]	binds	binds	–	–
TTTTTTTTTTTTTTTTTTTTTTTTTTTTT [RP316-Cy3]	–	–	no binding	no binding
